Like-named read-outs stand apart in the source and are kept apart here.

Consider 1 compound from patent publication US8378085B2, “Bacterial ATP synthase binding domain” (priority 2004, dated 2013).

This data set concerns M. smegmatis. It counts as cell-based, Mycobacterium smegmatis.

For `COc1nc2ccc(Br)cc2cc1[C@@H](c1ccccc1)[C@@](O)(CCN(C)C)c1cccc2ccccc12` [J], the “proportion of mutants with reduced sensitivity” value by setting is: (MIC×4) 2×10^−8; (MIC×8) 1×10^−8.
